The record followed here is PMC10978942.

The assay has as its target T1, ACE1^R383Q-BD (Trichoderma reesei) (UniProt Q9P8W3).
T1 sequence: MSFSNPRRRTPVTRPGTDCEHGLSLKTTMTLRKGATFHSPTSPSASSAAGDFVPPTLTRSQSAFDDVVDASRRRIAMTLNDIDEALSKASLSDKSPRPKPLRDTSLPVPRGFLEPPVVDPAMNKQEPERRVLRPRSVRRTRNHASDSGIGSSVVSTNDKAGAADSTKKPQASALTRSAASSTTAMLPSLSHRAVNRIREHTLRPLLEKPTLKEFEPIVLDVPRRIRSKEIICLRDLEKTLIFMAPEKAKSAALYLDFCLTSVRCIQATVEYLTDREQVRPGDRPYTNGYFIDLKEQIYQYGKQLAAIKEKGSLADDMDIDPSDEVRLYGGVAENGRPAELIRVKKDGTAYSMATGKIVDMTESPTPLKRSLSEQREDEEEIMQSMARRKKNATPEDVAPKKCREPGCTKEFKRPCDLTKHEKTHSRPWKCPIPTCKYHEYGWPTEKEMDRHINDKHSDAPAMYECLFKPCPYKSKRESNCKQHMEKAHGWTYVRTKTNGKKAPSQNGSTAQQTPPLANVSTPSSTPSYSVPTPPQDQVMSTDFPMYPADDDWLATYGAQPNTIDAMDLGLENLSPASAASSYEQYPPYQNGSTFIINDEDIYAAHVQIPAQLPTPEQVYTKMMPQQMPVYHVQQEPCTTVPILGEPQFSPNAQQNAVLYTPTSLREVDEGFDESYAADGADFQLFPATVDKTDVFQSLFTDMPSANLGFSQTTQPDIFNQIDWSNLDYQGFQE
Briefly: two-hybrid; Matchmaker Gold Yeast Two-Hybrid System; trsam or xyr1 on the GAL4 activation domain (pGADT7), regulators on the GAL4 DNA-binding domain (pGBKT7); growth without histidine and adenine, 3-amino-1,2,4-triazole, X-alpha-gal.

These are yes or no findings as the source states them, for the method shown. Sequences can lack the tags named with a protein.

B1: XYR1-AD (protein, UniProt G0RLE8 1-920)
chain: MLSNPLRRYSAYPDISSASFDPNYHGSQSHLHSINVNTFGNSHPYPMQHLAQHAELSSSRMIRASPVQPKQRQGSLIAARKNSTGTAGPIRRRISRACDQCNQLRTKCDGLHPCAHCIEFGLGCEYVRERKKRGKASRKDIAAQQAAAAAAQHSGQVQDGPEDQHRKLSRQQSESSRGSAELAQPAHDPPHGHIEGSVSSFSDNGLSQHAAMGGMDGLEDHHGHVGVDPALGRTQLEASSAMGLGAYGEVHPGYESPGMNGHVMVPPSYGAQTTMAGYSGISYAAQAPSPATYSSDGNFRLTGHIHDYPLANGSSPSWGQSDLRYPVLEPLLPHLGNILPVSLACDLIDLYFSSSSSAQMHPMSPYVLGFVFRKRSFLHPTNPRRCQPALLASMLWVAAQTSEASFLTSLPSARSKVCQKLLELTVGLLQPLIHTGTNSPSPKTSPVVGAAALGVLGVAMPGSLNMDSLAGETGAFGAIGSLDDVITYVHLATVVSASEYKGASLRWWGAAWSLARELKLGRELPPGNPPANQEDGEGLSEDVDEHDLNRNNTRFVTEEEREERRRAWWLVYIVDRHLALCYNRPLFLLDSECSDLYHPMDDIKWQAGKFRSHDAGNSSINIDSSMTDEFGDSPRAARGAHYECRGRSIFGYFLSLMTILGEIVDVHHAKSHPRFGVGFRSARDWDEQVAEITRHLDMYEESLKRFVAKHLPLSSKDKEQHEMHDSGAVTDMQSPLSVRTNASSRMTESEIQASIVVAYSTHVMHVLHILLADKWDPINLLDDDDLWISSEGFVTATSHAVSAAEAISQILEFDPGLEFMPFFYGVYLLQGSFLLLLIADKLQAEASPSVIKACETIVRAHEACVVTLSTEYQRNFSKVMRSALALIRGRVPEDLAEQQQRRRELLALYRWTGNGTGLAL
As to B1, the binding entry is given as “no binding”.
